Results from US6656695B2, “Biomap characterization of biologically active agents” (Bioseek, Inc., priority 2000, dated 2003).

Test system: HUVEC cells
Experiment: optimized inflammatory assay combination: HUVEC treated with TNF-α+IFN-γ+IL-1, readout parameters by cell-based ELISA (biomap)
Design: species or system human
Settings: ibuprofen tested at 500, 250 and 125 μM; derived from the primary data
Experimental: Primary human umbilical vein endothelial cells (HUVEC) are used. Other cells that may replace HUVEC in the screen include primary microvascular endothelial cells, aortic or arteriolar endothelial cells or endothelial cell lines such as EAhy926 or E6-[…]-5-2G cells or human telomerase reverse transcriptase-expressing endothelial cells (Simmons, J. Immunol., 148:267, 1992; Rhim, Carcinogenesis 19:673, 1998; Yang, J. Biol. Chem. 274:26141, 1999). 2×10^4 cells/ml are cultured to confluence in EGM-2 (Clonetics). […] After 24 hours, cultures are washed and evaluated for the presence of the parameters ICAM-1 (1), VCAM-1 (2), E-selectin (3), IL-8 (4), CD31 (5), HLA-DR (6) and MIG (7) by cell-based ELISA as described (Melrose, J. Immunol. 161:2457, 1998). […] Development is stopped by addition of H2SO4 and the absorbance at 450 nm (subtracting the background absorbance at 600 nm) is read with a Molecular Dynamics plate reader. […] In FIG. 3A, the relative expression of each parameter is shown along the y-axis as average value of the OD measured at 450 nm of triplicate samples. […]

CC(C)Cc1ccc(C(C)C(=O)O)cc1 (stereo not shown) [ibuprofen]
correlation coefficients between biomaps at different concentrations (regression analysis): 0.96-0.99
